PubChem BioAssay AID1508597, Cure First – 2020
Aim: 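Knock-downs altering ovarian cancer cell survival with or without PARP inhibitor rucaparib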 (primary screen). System: human ovarian carcinoma lines grown from tumours: OCI-P5x (papillary serous) and OCI-C5x (clear cell). Reagent: siRNA pool against human genes, 1.25 pmol siRNA per well. Timing: 72 h or 96 h, depending on the cell culture. Challenge: rucaparib 20 µM (about IC30) or vehicle, present until read-out. Rucaparib or vehicle: Vehicle. Cell line: OCI-C5x (clear cell). Detection: 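ATP luminescence measured at 72 or 96 h according to the culture, then normalised and expressed as percent viability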. Direction: viability, normalised: higher = more viable cells remaining. Rule for the call: 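Active when normalised viability falls below 80 percent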. Calls: active = viability under 80%; inactive = viability 80% or more.
Shown is an unselected part of the about 2,100 reagents, in one setting of the screen. 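Calls flag viability under 80% in either arm, not effects specific to rucaparib; the reference for percent is not stated.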 A number with no mark means an inactive call. Some reagents were tested in more than one well and are listed for each. Not given: the 100% reference.

| gene | technical replicate | viability, normalised (%) |
| --- | --- | --- |
| IL4 (GeneID 3565) | 1 | 27.7 (active) |
| IL4 (GeneID 3565) | 2 | 38.2 (active) |
| IL4 (GeneID 3565) | 3 | 31.9 (active) |
| SAP130 (GeneID 79595) | 1 | 35 (active) |
| SAP130 (GeneID 79595) | 2 | 21.8 (active) |
| SAP130 (GeneID 79595) | 3 | 32.6 (active) |
| TSPYL4 (GeneID 23270) | 1 | 41.7 (active) |
| TSPYL4 (GeneID 23270) | 2 | 42.5 (active) |
| TSPYL4 (GeneID 23270) | 3 | 47 (active) |
| NUDT1 (GeneID 4521) | 1 | 46.6 (active) |
| NUDT1 (GeneID 4521) | 2 | 40.1 (active) |
| NUDT1 (GeneID 4521) | 3 | 44.2 (active) |
| VPS72 (GeneID 6944) | 1 | 22.8 (active) |
| VPS72 (GeneID 6944) | 2 | 34 (active) |
| VPS72 (GeneID 6944) | 3 | 40.3 (active) |
| RPH3A (GeneID 22895) | 1 | 42.7 (active) |
| RPH3A (GeneID 22895) | 2 | 28.6 (active) |
| RPH3A (GeneID 22895) | 3 | 40.8 (active) |
| PHF12 (GeneID 57649) | 1 | 40.7 (active) |
| PHF12 (GeneID 57649) | 2 | 54.6 (active) |
| PHF12 (GeneID 57649) | 3 | 57.9 (active) |

Targets listed so far whose target name starts with N or n:
| gene | technical replicate | viability, normalised (%) |
| --- | --- | --- |
| NUDT1 (GeneID 4521) | 1 | 46.6 (active) |
| NUDT1 (GeneID 4521) | 2 | 40.1 (active) |
| NUDT1 (GeneID 4521) | 3 | 44.2 (active) |

The listing continues:
| gene | technical replicate | viability, normalised (%) |
| --- | --- | --- |
| ZCWPW2 (GeneID 152098) | 1 | 62.1 (active) |
| ZCWPW2 (GeneID 152098) | 2 | 29.2 (active) |
| ZCWPW2 (GeneID 152098) | 3 | 55.7 (active) |
| SATB1 (GeneID 6304) | 1 | 54.4 (active) |
| SATB1 (GeneID 6304) | 2 | 55.8 (active) |
| SATB1 (GeneID 6304) | 3 | 43.5 (active) |
| GDPD1 (GeneID 284161) | 1 | 33.1 (active) |
| GDPD1 (GeneID 284161) | 2 | 36.8 (active) |
| GDPD1 (GeneID 284161) | 3 | 45.1 (active) |
| DNER (GeneID 92737) | 1 | 54.1 (active) |
| DNER (GeneID 92737) | 2 | 45.3 (active) |
| DNER (GeneID 92737) | 3 | 54.6 (active) |
| HK1 (GeneID 3098) | 1 | 58.5 (active) |
| HK1 (GeneID 3098) | 2 | 69.4 (active) |
| HK1 (GeneID 3098) | 3 | 44.6 (active) |
| PRKAR2A (GeneID 5576) | 1 | 80.8 |
| PRKAR2A (GeneID 5576) | 2 | 57.2 (active) |
| PRKAR2A (GeneID 5576) | 3 | 67.3 (active) |
| RPL11 (GeneID 6135) | 1 | 29.6 (active) |
| RPL11 (GeneID 6135) | 2 | 35.5 (active) |
| RPL11 (GeneID 6135) | 3 | 34.6 (active) |
| SRPK3 (GeneID 26576) | 1 | 43.5 (active) |
| SRPK3 (GeneID 26576) | 2 | 39.3 (active) |
| SRPK3 (GeneID 26576) | 3 | 41.6 (active) |
| KDM1A (GeneID 23028) | 1 | 49.7 (active) |
| KDM1A (GeneID 23028) | 2 | 57.7 (active) |
| KDM1A (GeneID 23028) | 3 | 61.2 (active) |
| GGCT (GeneID 79017) | 1 | 63.7 (active) |
| GGCT (GeneID 79017) | 2 | 66.2 (active) |
| GGCT (GeneID 79017) | 3 | 59.3 (active) |
| AK1 (GeneID 203) | 1 | 46.2 (active) |
| AK1 (GeneID 203) | 2 | 57.2 (active) |
| AK1 (GeneID 203) | 3 | 53.3 (active) |
| MGMT (GeneID 4255) | 1 | 57.6 (active) |
| MGMT (GeneID 4255) | 1 | 44.3 (active) |
| MGMT (GeneID 4255) | 2 | 72 (active) |
| MGMT (GeneID 4255) | 2 | 42.1 (active) |
| MGMT (GeneID 4255) | 3 | 60.1 (active) |
| MGMT (GeneID 4255) | 3 | 42.3 (active) |
